{"source": "patent US20050234073A1", "about": "“Methods of inhibiting inflammation” (priority 2003, published 2005)", "assay": "Assessment of plasma lipids and body weight after pIpC treatment", "format": "in vivo, mouse", "experimental": "Female 6-8 week-old of both MTP^pflox/floxMx1Cre mice and WT B6 mice that had been injected intraperitoneally with either PBS as control or 500 μg polyinosinic-polycytidylic ribonucleic acid (pIpC, Sigma, St. Louis, Mo.) in PBS every other day for a total of four doses were sacrificed one or 10 days after the last pIpC injection at which time sera was obtained from peripheral blood. The serum was subjected to total cholesterol and triglyceride assays at the clinical laboratory of Brigham and Women's Hospital (Boston, Mass.).\nTo further substantiate a direct biochemical relationship between CD1d and MTP, the effects on CD1d expression and function was examined in a conditional MTP-deficient mouse model which contains a “floxed” MTPp gene (MTPp^flox/flox) that had been intercrossed with mice expressing Mx1 promoter controlled, Cre-recombinase (Raabe, M. et al. J. Clin. Invest. 103, 1287-1298 (1999); Bjorkegren, J., Beigneux, A., Bergo, M. O., Maher, J. J. & Young, S. G. J. Biol. Chem. 277, 5476-5483 (2002)). The Mx1 promoter is induced by interferon-inducing substances such as polyinosinic-polycytidylic acid (pIpC) (Raabe, M. et al. J. Clin. Invest. 103, 1287-1298 (1999); Bjorkegren, J., Beigneux, A., Bergo, M. O., Maher, J. J. & Young, S. G. J. Biol. Chem. 277, 5476-5483 (2002); Ralf, K., Schwenk, F., Aguet, M. & Rajewsky, K. Science. 269, 1427-1429 (1995)) such that treatment of MTPp^flox/floxMx1Cre mice with pIpC leads to deletion of the MTPp gene (MTPp^Δ/Δ) primarily within the liver, spleen and intestine providing a degree of tissue specificity to the gene deletion. As previously reported, treatment of 6-10 week old MTPp^flox/floxMx1Cre mice (or MTP^flox/floxMx1Cre mice) with pIpC caused progressive hepatic steatosis (1C) and decreases in serum triglyceride and cholesterol levels (Table 5) in association with decreased MTP mRNA levels as defined by RT-PCR (FIG. 1D) and protein levels (FIG. 1E) in liver and colon.", "data": [{"substance": "polyinosinic-polycytidylic ribonucleic acid [pIpC]", "values": [{"measurement": "Body weight", "setting": "C57BL/6J mice, 1 day after treatment", "result": "21.5 ± 0.7", "unit": "g"}, {"measurement": "Body weight", "setting": "C57BL/6J mice, 10 days after treatment", "result": "20.7 ± 0.7", "unit": "g"}, {"measurement": "Body weight", "setting": "MTPflox/floxMx1Cre mice, 1 day after treatment", "result": "21.8 ± 1.0", "unit": "g"}, {"measurement": "Body weight", "setting": "MTPflox/floxMx1Cre mice, 10 days after treatment", "result": "21.8 ± 1.0", "unit": "g"}]}]}
